Experiment: Permeability of compound in PBS at pH 7.4 incubated for 18 hrs by PAMPA-BBB assay

COc1cc2c(cc1OC)C(=O)C(CC1CCN(Cc3ccccc3)CC1)C2 (stereo unspecified) [DONEPEZIL]
Papp at 18 h: 6.14 ×10⁻⁶ cm/s
